In patent US11957762B2, “Immune tolerant and non-immune tolerant elastin-like recombinant peptides and methods of use” (University of Utah Research Foundation, priority 2015, dated 2024):
At least one read-out could not be matched to a standard name with certainty.

Experiment: In vitro Sali-ABA release assay
Type: physicochemical
Details: pH 5.0, 0.1 M acetate buffer, 37° C.
Procedure: In vitro Sali-ABA release assay. The release of Sali-ABA from iTEP-MPBH-ABA-Sali NP was measured after the NP was incubated in PBS (pH=7.4) or 0.1M sodium acetate/acetic acid buffer (pH=5) at 37° C. Multiple repeats of each mixture were kept in separate Eppendorf tubes and shaken at 100 rpms at 37° C. At predetermined time points, free Sali-ABA in one tube of sample was determined by HPLC based on a standard curve of Sali-ABA. The standard curve was established at 280 nm. The HPLC setup was the same as the described herein.
The relationship of the percentage of Sali-ABA release (F) with time (t) was fitted using the following equation and GraphPad V5.0. F%,released=100[…]

B1: iTEP-MPBH-ABA-Sali: conjugate of hydrophilic iTEP (SEQ ID NO: 58) with Sali-ABA-MPBH, self-assembled into a NP (conjugate)
chain: GGAGVPGGAGVPGGAGVPGGAGVPGGAGVPGGAGVPGGAGVPGGAGVPGGAGVPGGAGVPGGAGVPGGAGVPGGAGVPGGAGVPGGAGVPGGAGVPGGAGVPGGAGVPGGAGVPGGAGVPGGAGVPGGAGVPGGAGVPGGAGVPGGAGVPGGAGVPGGAGVPGGAGVPGGAGVPGGAGVPGGAGVPGGAGVPGGAGVPGGAGVPGGAGVPGGAGVPGGAGVPGGAGVPGGAGVPGGAGVPGGAGVPGGAGVPGGAGVPGGAGVPGGAGVPGGAGVPGGAGVPGGAGVPGGAGVPGGAGVPGGAGVPGGAGVPGGAGVPGGAGVPGGAGVPGGAGVPGGAGVPGGAGVPGGAGVPGGAGVPGGAGVPGGAGVPGGAGVPGGAGVPGGAGVPGGAGVPGGAGVPGGAGVPGGAGVPGGAGVPGGGVLPGVGGVLPGVGGVLPGVGGVLPGVGGVLPGVGGVLPGVGGVLPGVGGVLPGVGGVLPGVGGVLPGVGGVLPGVGGVLPGVGGVLPGVGGVLPGVGGVLPGVGGVLPGVGGVLPGVGGVLPGVGGVLPGVGGVLPGVGGVLPGVGGVLPGVGGVLPGVGGVLPGVGGVLPGVGGVLPGVGGVLPGVGGVLPGVGGVLPGVGGVLPGVGGVLPGVGGVLPGVGGVLPGVGGVLPGVGGVLPGVGGVLPGVGGVLPGVGGVLPGVGGVLPGVGGVLPGVGGVLPGVGGVLPGVGGVLPGVGGVLPGVGGVLPGVGGVLPGVGGVLPGVGGVLPGVGGVLPGVGGVLPGVGGVLPGVGGVLPGVGGVLPGVGGVLPGVGGVLPGVGGVLPGVGG
modifications: conjugated to Sali via ABA-MPBH linker
In the case of B1, the “release half-life of Sali-ABA from the conjugate” value is reported as 12.15 h.
